This is one part of the list. Most entries show no effect beyond the scatter of the controls.

Protein sequences, listed by entry. Tags and fused reporters are not part of them. Lines headed by an entry give the natural chain unless they say otherwise; changes in a name come on top.
UniProt O94967: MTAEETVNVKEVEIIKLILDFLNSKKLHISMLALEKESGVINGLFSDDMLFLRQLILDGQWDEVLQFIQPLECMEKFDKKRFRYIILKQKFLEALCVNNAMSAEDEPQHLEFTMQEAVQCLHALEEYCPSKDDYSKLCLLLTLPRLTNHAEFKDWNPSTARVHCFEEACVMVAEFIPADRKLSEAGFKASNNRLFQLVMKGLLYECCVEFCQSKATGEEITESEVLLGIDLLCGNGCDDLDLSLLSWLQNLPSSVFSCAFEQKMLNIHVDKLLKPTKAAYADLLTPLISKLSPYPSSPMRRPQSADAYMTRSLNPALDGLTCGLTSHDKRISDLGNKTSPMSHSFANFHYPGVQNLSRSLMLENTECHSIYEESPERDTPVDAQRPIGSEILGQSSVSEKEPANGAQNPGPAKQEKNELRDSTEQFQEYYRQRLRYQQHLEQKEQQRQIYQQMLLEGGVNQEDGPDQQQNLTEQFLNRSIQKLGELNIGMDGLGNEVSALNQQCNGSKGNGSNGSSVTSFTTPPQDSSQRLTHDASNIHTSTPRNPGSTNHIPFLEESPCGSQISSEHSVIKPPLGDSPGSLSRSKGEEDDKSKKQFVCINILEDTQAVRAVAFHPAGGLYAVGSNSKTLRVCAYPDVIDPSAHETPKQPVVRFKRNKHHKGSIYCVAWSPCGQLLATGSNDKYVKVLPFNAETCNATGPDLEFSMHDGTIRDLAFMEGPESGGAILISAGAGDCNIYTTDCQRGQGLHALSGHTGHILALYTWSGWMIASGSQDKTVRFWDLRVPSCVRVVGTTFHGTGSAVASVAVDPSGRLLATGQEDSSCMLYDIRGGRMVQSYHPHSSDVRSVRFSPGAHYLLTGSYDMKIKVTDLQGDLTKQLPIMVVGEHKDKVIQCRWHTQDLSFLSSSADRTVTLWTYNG
UniProt O75390: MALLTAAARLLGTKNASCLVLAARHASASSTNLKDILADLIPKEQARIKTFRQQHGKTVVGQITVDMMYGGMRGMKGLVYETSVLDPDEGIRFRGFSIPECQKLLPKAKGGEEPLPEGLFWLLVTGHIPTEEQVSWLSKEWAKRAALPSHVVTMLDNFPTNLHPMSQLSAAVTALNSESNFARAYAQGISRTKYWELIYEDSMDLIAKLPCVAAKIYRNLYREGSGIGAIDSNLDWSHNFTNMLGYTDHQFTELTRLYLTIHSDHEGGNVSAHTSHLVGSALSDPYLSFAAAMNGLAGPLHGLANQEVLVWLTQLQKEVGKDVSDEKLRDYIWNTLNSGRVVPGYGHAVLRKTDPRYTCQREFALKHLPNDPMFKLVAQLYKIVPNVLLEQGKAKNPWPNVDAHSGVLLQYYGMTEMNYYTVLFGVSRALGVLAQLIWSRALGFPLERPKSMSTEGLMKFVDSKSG
UniProt O95149, whole entry: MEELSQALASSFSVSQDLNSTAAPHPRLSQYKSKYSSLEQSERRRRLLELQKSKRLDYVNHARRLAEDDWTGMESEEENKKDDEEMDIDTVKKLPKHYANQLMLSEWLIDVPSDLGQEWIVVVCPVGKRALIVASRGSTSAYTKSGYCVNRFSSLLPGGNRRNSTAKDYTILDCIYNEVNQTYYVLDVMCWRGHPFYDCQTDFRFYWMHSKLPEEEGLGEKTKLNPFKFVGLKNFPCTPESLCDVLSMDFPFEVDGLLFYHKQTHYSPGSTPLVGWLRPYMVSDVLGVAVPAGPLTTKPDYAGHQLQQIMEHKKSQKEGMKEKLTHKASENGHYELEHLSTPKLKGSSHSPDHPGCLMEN
UniProt O95251, whole entry: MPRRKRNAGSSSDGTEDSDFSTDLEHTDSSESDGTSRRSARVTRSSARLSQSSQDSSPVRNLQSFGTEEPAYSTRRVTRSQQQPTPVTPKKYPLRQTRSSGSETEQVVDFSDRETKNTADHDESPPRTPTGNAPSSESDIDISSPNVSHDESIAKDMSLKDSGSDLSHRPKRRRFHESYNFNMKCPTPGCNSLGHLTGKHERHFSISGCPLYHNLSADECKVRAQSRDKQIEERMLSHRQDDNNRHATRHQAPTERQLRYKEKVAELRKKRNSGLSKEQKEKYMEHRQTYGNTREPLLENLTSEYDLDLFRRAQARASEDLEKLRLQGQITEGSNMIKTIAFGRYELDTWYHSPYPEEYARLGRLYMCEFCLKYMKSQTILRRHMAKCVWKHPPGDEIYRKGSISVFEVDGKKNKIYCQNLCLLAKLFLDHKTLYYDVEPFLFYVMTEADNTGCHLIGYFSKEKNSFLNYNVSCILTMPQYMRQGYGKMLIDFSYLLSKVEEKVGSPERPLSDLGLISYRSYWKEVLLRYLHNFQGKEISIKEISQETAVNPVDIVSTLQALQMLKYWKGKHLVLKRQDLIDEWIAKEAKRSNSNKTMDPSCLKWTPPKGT
UniProt O95848: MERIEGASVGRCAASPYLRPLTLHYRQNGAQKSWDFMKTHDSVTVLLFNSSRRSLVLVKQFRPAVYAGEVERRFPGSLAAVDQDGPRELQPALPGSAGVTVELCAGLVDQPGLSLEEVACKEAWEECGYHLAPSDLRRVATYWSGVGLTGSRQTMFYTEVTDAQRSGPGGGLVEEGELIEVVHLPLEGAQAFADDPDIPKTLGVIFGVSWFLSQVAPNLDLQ
UniProt O94763, whole entry: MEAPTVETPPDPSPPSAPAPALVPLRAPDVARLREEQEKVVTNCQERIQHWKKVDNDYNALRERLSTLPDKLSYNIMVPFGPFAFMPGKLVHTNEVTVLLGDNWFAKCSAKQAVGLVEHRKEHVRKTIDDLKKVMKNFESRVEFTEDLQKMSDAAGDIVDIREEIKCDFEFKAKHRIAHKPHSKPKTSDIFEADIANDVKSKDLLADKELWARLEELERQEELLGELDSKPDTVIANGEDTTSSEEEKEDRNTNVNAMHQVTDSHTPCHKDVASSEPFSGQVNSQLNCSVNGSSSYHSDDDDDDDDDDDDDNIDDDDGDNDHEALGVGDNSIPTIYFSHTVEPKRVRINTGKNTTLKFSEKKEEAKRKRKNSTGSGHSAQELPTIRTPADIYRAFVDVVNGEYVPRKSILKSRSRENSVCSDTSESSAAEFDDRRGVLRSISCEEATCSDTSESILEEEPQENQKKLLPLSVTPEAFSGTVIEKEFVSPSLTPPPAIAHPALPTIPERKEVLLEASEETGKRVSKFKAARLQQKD
UniProt O95168, whole entry: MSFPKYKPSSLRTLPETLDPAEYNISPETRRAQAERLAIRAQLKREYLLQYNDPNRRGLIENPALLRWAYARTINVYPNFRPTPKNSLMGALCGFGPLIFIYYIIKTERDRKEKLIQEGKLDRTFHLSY
UniProt O75912: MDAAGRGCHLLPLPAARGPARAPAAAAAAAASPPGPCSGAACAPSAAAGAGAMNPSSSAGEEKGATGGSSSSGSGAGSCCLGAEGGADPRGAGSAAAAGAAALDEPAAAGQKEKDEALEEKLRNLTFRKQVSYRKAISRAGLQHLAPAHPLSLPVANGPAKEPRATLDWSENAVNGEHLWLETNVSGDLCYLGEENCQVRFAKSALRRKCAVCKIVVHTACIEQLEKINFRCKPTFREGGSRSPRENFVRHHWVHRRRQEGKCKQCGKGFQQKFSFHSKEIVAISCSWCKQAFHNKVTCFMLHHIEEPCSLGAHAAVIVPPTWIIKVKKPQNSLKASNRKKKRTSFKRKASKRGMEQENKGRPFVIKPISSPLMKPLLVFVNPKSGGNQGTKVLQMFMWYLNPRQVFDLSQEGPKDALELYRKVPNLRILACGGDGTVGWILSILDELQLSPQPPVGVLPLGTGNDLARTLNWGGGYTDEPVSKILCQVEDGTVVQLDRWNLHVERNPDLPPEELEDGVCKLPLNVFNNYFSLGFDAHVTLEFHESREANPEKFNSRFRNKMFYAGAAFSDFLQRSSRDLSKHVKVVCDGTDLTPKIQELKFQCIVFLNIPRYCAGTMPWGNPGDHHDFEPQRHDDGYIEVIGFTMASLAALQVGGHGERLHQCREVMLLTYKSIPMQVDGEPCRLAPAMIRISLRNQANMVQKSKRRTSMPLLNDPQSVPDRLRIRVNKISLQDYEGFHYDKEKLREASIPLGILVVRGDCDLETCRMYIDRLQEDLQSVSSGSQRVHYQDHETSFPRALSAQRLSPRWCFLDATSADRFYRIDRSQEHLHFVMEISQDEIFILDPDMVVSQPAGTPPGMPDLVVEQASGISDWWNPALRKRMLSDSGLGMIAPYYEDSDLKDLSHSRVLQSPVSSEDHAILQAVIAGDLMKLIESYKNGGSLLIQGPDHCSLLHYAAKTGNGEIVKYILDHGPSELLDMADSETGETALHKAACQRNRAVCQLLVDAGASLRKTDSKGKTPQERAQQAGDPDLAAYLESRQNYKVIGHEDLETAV
UniProt O95394: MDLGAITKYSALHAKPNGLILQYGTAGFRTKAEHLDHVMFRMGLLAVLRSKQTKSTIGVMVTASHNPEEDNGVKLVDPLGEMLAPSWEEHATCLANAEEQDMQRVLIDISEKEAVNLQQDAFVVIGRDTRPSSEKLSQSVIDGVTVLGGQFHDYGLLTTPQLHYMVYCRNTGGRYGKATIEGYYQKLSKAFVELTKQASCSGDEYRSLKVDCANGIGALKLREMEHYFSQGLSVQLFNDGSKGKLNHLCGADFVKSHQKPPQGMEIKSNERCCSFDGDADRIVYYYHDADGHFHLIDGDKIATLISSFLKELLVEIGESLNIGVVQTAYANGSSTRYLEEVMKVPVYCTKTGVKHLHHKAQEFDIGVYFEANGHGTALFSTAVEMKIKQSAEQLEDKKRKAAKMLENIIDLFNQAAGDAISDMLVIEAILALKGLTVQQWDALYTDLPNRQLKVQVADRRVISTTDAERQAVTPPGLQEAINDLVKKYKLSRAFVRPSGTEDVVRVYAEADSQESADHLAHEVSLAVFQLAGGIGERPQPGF
UniProt O95544: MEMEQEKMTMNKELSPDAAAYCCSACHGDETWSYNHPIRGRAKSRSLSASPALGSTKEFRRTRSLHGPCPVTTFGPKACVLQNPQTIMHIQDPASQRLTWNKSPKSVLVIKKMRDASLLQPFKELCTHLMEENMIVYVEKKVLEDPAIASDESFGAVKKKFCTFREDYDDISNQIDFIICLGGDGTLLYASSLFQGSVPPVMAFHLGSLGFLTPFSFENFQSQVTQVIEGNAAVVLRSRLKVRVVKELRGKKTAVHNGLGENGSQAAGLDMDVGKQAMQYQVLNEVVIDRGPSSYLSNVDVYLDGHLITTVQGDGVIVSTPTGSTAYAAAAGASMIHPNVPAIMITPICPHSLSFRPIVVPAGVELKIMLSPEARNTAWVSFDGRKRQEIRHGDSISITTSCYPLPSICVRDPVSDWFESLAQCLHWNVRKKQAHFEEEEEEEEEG
UniProt O75414: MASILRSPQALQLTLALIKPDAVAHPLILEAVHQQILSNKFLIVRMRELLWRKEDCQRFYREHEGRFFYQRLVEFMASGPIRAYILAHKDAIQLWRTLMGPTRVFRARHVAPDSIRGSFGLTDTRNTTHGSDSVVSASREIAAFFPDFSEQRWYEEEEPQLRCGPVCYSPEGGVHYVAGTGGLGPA
UniProt O75781: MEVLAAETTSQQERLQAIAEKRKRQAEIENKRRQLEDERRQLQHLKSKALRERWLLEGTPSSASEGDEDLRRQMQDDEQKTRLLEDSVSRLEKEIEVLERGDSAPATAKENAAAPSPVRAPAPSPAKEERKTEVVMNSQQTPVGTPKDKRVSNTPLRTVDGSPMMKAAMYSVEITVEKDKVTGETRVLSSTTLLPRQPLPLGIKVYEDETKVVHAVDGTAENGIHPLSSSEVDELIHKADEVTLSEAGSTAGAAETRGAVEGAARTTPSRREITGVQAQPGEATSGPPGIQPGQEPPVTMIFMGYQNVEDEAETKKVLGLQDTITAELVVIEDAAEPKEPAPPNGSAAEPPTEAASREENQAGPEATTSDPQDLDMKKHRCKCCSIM
UniProt O75864: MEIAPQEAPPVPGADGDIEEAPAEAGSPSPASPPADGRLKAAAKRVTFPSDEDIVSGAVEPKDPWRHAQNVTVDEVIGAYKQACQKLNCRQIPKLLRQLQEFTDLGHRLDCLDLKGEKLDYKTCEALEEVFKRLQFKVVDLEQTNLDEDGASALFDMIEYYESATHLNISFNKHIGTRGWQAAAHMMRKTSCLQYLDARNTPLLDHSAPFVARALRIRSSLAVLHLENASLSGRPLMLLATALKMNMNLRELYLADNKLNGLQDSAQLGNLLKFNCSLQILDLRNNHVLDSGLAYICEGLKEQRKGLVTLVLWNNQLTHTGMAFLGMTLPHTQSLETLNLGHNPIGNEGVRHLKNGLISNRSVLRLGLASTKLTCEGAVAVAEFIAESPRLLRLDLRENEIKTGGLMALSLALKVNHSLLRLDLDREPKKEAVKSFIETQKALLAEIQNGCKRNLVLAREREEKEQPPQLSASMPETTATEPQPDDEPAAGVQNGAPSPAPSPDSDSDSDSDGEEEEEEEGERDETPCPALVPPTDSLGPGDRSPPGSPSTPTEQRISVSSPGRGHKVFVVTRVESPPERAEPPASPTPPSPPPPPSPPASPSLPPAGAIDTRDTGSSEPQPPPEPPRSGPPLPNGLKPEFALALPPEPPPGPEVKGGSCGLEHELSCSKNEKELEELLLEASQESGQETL

Compound in the assay: CN[C@@H]1C[C@H]2O[C@@](C)([C@@H]1OC)n1c3ccccc3c3c4c(c5c6ccccc6n2c5c31)C(=O)NC4 [staurosporine]
The experiment in a line: log2 fold change of tryptic peptide abundance, ligand vs vehicle (limited proteolysis) (log2 ratio); higher = more trypsin-susceptible (destabilized). The conditions noted are these: ligand concentration: 20 uM; sample: K562 cleared lysate; digestion: 4 min, 22 C (HT-PELSA RT4min, Orbitrap Astral).
Consider “PRPF6 (peptide sequence: GQIEEQKEMMEK, peptide start residue: 716) (UniProt O94906)”, for which the log2 fold change was -0.175. In the case of “WDR47 (peptide sequence: LTHDASNIHTSTPR, peptide start residue: 531) (UniProt O94967)”, the log2 fold change is -0.262. In the case of “CS (peptide sequence: DILADLIPK, peptide start residue: 35) (UniProt O75390)”, the log2 fold change stood at 0.306. Take “PARN (peptide sequence: YIVISKVDEEERK, peptide start residue: 238) (UniProt O95453)”: the log2 fold change turned out to be 0.335. The value for “SPAG7 (peptide sequence: MEKEVSDFIQDSGQIK, peptide start residue: 52) (UniProt O75391)” was 0.659; that for “SNUPN (peptide sequence: SKYSSLEQSER, peptide start residue: 33) (UniProt O95149)” was 0.168. The same measure for “TIPRL (peptide sequence: VMPSSFFLLLR, peptide start residue: 174) (UniProt O75663)”: -0.179. For “EIF3G (peptide sequence: IVSCRICK, peptide start residue: 154) (UniProt O75821)”, the log2 fold change was 0.674. On to “CPSF4 (peptide sequence: SSSLIQLTSQNSSPNQQR, peptide start residue: 200) (UniProt O95639)”, for which the log2 fold change turned out to be 0.19. The same measure for “DNAJC8 (peptide sequence: QREEEIEAQEK, peptide start residue: 191) (UniProt O75937)”: -0.132; for “NDUFS3 (peptide sequence: ILTDYGFEGHPFR, peptide start residue: 187) (UniProt O75489)”: 0.633; for “SMC2 (peptide sequence: TKFVDGVSTVAR, peptide start residue: 1159) (UniProt O95347)”: 0.226. As to “MED24 (peptide sequence: LEEASSWTAIEHSLLK, peptide start residue: 183) (UniProt O75448)”, the log2 fold change was determined as 1.13. Consider “ZFYVE9 (peptide sequence: VFCASCCSLK, peptide start residue: 727) (UniProt O95405)”, for which the log2 fold change came out at 0.491. The same measure for “DDHD2 (peptide sequence: DLQEIGIPLGPR, peptide start residue: 423) (UniProt O94830)”: -0.321. The value for “TNFAIP8 (peptide sequence: NLAVQAQK, peptide start residue: 20) (UniProt O95379)” was -0.122; that for “PPM1B (peptide sequence: NGQVCFSTQDHKPCNPR, peptide start residue: 159) (UniProt O75688)” was 0.536; that for “UniProt O95251 (peptide sequence: CPTPGCNSLGHLTGK, peptide start residue: 185)” was 0.354.

As for “NUDT14 (peptide sequence: CAASPYLRPLTLHYR, peptide start residue: 12) (UniProt O95848)”, the log2 fold change was -0.207. With “BCL10 (peptide sequence: SNSDESNFSEK, peptide start residue: 136) (UniProt O95999)”, the log2 fold change was -0.123. For “UniProt O94763 (peptide sequence: EVLLEASEETGKR, peptide start residue: 510)”, the log2 fold change was -0.138.

As for “UniProt O95696 (peptide sequence: LDAGLTNGFGGAR, peptide start residue: 819)”, the log2 fold change was -0.382. Regarding “NDUFB4 (peptide sequence: TINVYPNFRPTPK, peptide start residue: 73) (UniProt O95168)”, the log2 fold change stood at 0.362. Regarding “UniProt O75912 (peptide sequence: GMEQENKGR, peptide start residue: 354)”, the log2 fold change is -0.0272. The same measure for “UniProt O96015 (peptide sequence: LQTFPLVR, peptide start residue: 16)”: 0.0375; for “NPM3 (peptide sequence: NHDHQEIAVPVANLK, peptide start residue: 88) (UniProt O75607)”: 0.0363. For “PGM3 (peptide sequence: YLEEVMKVPVYCTK, peptide start residue: 337) (UniProt O95394)”, the log2 fold change was -0.28. The same measure for “NADK (peptide sequence: MEMEQEK, peptide start residue: 1) (UniProt O95544)”: 0.342; for “DFFB (peptide sequence: VLGSMCQR, peptide start residue: 189) (UniProt O76075)”: -0.181; for “NME6 (peptide sequence: LVEFMASGPIR, peptide start residue: 72) (UniProt O75414)”: 0.567. The same measure for “UTP20 (peptide sequence: QKSHSLKDLAMVE, peptide start residue: 2773) (UniProt O75691)”: -0.785. As to “MYO1D (peptide sequence: KCTVSVETR, peptide start residue: 976) (UniProt O94832)”, the log2 fold change was found to be 0.701. In the case of “MED26 (peptide sequence: LTFDPMTR, peptide start residue: 425) (UniProt O95402)”, the log2 fold change was 0.382. The value for “PALM (peptide sequence: ENAAAPSPVR, peptide start residue: 110) (UniProt O75781)” was -0.634; that for “B3GAT3 (peptide sequence: FEGPQVQDGR, peptide start residue: 226) (UniProt O94766)” was 0.228. For “PPP1R37 (peptide sequence: ALLAEIQNGCK, peptide start residue: 442) (UniProt O75864)”, the log2 fold change was -0.334.

(Values after the supplement of paper PMC12819154, “High-throughput peptide-centric local stability assay extends protein–ligand identification to membrane proteins, tissues and bacteria” (Nature Structural & Molecular Biology, 2025).)
